Assay results reported in patent US20160186164.
For some assays here: Weaker means in comparison with the reference protein, sequence or condition of that experiment.

Columns and labels:
[1] = biological target: p50-Tth DNA ligase fusion (EE0217, 4-2-5-3) (Homo sapiens / Thermus thermophilus) (UniProt P26996); assay: activity assay; conditions: blunt-end ligation at 75 C, agarose gel; concatamers; purified recombinant protein
[2] = tested on: p50-T4 DNA ligase fusion (4-2-5-8) (Homo sapiens / Enterobacteria phage T4); assay: activity assay; conditions: blunt-end ligation at 75 C, agarose gel; purified recombinant protein

Which results are given for “AATTCTCTTTAAATAAACCCAAGGTCTCAGATTTCATGCAGATTGTGTC (double strand) [EE0139/EE0140 49-bp blunt duplex]”?
activity on this sequence [1]: active; activity on this sequence [2]: less active
